# The list shows a part of the results.
# The chains behind the UniProt entries cited, without tags or fusion partners. Where a name states a change or a piece, a line headed by the entry shows the natural chain unless it says otherwise.
# UniProt O43314: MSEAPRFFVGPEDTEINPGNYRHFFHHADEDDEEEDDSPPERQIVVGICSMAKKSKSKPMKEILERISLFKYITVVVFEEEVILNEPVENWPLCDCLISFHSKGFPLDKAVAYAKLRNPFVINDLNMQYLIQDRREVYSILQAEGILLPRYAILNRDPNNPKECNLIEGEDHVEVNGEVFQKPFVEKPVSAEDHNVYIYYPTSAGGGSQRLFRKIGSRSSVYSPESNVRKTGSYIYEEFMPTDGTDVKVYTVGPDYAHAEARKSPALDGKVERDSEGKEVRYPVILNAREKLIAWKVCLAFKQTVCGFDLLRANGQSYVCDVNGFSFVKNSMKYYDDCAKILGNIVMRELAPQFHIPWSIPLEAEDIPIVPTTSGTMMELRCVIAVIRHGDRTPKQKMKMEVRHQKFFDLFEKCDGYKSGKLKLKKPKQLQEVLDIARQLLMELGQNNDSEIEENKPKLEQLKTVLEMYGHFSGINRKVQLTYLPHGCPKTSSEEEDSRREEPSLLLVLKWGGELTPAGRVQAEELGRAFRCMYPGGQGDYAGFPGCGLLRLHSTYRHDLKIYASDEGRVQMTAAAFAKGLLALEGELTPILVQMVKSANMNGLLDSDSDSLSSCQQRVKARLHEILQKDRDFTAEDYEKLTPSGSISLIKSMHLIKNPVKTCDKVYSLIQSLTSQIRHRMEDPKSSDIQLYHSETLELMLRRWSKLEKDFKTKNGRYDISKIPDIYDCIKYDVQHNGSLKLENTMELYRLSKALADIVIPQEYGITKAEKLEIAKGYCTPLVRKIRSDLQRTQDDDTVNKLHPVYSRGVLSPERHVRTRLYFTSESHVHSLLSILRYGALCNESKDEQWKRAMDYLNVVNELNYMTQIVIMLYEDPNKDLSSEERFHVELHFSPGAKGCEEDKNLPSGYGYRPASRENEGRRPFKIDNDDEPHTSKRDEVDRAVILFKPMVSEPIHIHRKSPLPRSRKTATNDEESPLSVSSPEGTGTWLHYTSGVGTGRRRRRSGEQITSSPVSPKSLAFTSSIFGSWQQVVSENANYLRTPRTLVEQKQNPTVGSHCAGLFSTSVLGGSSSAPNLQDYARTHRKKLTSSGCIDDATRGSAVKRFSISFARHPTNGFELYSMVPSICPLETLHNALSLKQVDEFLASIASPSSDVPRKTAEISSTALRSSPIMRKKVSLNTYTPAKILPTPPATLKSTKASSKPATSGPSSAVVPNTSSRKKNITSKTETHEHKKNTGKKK
# UniProt Q9NR22, whole entry, looked up: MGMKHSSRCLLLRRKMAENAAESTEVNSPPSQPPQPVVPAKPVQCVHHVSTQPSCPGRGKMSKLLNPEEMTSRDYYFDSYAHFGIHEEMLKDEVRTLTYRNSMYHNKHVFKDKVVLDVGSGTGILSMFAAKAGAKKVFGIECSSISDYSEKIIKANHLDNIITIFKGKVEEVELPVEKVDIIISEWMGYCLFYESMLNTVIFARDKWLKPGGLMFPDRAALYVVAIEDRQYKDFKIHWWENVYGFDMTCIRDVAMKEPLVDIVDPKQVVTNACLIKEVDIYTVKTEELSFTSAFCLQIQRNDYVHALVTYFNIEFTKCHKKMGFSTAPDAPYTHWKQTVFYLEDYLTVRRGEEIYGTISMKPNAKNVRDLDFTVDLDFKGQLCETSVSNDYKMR
# UniProt Q6NUP7: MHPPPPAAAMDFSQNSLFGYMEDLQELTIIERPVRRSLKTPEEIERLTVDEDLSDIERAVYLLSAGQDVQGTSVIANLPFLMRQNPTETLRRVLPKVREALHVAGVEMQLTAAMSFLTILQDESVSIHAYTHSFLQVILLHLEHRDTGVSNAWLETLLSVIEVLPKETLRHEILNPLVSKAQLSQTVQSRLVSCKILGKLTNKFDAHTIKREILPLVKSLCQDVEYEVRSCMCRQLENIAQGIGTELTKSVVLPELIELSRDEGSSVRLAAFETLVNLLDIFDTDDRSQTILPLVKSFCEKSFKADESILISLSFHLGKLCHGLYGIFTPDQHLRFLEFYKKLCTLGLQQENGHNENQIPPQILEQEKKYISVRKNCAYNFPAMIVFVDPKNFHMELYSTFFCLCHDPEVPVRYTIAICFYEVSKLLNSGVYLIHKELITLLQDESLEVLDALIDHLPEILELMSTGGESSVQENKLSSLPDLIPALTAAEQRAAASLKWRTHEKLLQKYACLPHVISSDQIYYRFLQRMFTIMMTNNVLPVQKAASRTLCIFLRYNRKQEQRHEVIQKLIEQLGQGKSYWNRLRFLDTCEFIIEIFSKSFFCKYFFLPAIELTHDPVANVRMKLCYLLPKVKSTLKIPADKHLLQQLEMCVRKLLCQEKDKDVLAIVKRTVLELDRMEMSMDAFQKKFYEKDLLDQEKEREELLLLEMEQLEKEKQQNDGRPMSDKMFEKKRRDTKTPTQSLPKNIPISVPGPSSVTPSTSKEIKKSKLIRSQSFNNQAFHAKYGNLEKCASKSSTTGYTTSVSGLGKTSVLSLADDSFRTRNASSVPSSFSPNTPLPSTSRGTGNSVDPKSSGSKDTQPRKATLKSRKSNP
# UniProt Q96C90: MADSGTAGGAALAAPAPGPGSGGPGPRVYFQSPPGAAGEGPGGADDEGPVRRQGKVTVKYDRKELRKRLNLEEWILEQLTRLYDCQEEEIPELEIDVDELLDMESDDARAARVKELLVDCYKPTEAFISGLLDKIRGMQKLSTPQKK
# UniProt Q9UPN7: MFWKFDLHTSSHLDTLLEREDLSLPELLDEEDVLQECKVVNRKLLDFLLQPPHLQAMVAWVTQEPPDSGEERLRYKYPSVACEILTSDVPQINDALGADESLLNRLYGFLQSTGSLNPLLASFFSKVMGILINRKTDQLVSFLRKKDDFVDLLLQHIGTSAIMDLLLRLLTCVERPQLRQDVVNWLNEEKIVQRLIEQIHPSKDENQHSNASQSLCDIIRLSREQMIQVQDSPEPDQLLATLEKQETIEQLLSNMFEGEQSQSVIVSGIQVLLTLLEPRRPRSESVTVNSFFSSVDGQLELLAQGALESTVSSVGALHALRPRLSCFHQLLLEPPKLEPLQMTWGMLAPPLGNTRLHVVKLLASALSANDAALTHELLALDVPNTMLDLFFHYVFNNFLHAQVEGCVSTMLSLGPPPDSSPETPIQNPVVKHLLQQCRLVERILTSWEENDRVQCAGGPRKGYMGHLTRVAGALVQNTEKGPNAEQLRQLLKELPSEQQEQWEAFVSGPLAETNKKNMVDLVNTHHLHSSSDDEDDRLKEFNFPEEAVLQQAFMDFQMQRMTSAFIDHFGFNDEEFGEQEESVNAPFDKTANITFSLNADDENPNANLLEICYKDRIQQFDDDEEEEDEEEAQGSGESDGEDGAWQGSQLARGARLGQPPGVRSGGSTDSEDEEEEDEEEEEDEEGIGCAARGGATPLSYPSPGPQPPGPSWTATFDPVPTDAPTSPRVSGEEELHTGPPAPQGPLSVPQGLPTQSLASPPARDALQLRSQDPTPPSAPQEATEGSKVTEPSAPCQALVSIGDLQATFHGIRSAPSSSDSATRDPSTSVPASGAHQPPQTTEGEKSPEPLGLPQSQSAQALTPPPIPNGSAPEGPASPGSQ
# UniProt P48147: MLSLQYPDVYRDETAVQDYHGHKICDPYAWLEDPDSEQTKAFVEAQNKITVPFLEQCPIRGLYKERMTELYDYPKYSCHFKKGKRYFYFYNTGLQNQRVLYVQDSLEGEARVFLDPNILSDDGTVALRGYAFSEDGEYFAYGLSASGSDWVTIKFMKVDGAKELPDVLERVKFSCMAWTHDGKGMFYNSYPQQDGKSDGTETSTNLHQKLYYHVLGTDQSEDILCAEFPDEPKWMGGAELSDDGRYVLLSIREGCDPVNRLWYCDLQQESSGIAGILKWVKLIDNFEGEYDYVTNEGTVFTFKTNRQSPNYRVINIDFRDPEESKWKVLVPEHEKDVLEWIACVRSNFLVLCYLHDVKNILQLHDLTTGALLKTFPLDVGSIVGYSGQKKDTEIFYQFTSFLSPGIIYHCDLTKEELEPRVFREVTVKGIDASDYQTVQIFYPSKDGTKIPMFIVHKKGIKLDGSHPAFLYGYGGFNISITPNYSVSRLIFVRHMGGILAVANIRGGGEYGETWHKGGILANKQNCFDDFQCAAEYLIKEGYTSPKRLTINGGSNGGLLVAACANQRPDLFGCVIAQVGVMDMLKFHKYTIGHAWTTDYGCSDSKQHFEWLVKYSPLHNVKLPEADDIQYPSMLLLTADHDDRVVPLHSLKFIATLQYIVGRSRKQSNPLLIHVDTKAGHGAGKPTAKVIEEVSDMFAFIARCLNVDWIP
# UniProt P67775, whole entry, looked up: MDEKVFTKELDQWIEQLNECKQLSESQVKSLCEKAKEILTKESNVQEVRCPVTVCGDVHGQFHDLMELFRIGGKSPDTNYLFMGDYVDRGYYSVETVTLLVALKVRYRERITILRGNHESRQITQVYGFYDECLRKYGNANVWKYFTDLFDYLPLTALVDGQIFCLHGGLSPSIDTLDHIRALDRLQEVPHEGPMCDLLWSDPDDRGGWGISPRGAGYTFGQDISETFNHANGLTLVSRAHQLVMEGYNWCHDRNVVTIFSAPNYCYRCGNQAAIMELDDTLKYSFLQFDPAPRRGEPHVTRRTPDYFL
# UniProt P41236: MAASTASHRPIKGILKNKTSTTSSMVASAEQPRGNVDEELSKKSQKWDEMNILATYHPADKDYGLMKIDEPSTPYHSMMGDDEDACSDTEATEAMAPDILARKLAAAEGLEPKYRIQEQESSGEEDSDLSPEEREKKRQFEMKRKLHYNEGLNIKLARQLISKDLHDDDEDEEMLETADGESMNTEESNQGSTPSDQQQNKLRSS
# UniProt Q9UNN8: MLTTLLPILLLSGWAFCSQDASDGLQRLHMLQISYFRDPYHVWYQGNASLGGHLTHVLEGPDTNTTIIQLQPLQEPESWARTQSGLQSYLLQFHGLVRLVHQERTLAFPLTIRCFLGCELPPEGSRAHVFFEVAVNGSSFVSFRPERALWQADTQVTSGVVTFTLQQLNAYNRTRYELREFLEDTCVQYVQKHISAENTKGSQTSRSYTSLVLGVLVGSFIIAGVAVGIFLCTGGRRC
# UniProt Q9H875: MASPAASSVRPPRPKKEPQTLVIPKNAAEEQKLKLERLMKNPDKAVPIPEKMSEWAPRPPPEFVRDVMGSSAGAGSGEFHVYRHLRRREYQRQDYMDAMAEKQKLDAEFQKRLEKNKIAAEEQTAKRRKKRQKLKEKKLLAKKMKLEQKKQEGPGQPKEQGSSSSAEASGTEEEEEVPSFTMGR
# UniProt O60828: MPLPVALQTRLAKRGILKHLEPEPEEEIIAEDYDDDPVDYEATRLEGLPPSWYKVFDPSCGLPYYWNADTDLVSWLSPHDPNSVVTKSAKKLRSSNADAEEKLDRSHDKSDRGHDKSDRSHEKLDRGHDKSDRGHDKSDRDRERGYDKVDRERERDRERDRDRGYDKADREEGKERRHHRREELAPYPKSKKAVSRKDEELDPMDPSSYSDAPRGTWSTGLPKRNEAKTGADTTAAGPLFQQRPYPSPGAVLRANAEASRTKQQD
# UniProt P14314: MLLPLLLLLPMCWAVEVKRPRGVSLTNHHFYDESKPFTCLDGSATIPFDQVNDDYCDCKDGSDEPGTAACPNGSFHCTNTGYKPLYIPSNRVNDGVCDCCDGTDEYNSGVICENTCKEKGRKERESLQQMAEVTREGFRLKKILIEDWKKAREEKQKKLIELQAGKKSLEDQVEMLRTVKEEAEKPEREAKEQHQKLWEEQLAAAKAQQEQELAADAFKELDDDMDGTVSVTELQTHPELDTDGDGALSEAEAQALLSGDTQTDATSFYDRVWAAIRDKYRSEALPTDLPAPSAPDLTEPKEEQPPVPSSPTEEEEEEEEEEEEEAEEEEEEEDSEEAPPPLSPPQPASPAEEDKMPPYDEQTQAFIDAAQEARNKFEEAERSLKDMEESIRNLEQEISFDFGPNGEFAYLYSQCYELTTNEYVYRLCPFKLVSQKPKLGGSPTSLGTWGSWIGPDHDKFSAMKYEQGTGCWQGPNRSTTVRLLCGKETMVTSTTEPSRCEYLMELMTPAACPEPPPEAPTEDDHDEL
# UniProt Q13162: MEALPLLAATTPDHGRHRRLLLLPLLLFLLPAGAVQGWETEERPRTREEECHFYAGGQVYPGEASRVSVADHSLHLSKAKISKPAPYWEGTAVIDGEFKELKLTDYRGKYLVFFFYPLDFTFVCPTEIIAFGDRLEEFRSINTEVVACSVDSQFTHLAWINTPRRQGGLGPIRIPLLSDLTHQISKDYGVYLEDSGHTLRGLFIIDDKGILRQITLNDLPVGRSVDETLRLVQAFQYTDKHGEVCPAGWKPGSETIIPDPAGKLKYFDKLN
# Key:
# Assay in all cases: log2 fold change, soluble protein after heating vs DMSO (PISA); higher = thermal stabilisation; K562 lysate, 10 uM; active = over 0.2 and 3.5 SD of the protein, either way, in both replicates (recomputed)
# erlotinib = compound: C#Cc1cccc(Nc2ncnc3cc(OCCOC)c(OCCOC)cc23)c1 [erlotinib]
# Procedure, shortened: (§1)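 Following dounce homogenisation of K562 pellets in PBS pH 7.4 with 1 mM MgCl2, crude extract at 1 mg/mL protein was incubated for 30 min with 10 μM compound. Aliquots were then heated for 3 min over 48°C-58°C and pooled, NP-40 was added to 0.5% at 4°C, and soluble protein was recovered as the supernatant at 21,000xg for 90 min. Channel-sum-equalised TMTpro 16plex LC-MS/MS quantified this protein. Each value, from duplicates, is a log-two fold change in thermal stability relative to solvent controls.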
# [1] = compound: C/C(=N\NC(=O)C1=CC(=CC=C1)S(=O)(=O)N2CCOCC2)/C3=C(C=CC(=C3)Cl)O
# Procedure, shortened: as §1
# [2] = compound: C1=CC(=CC=C1C2=NC3=C(N2)C=C(C=C3)C(=O)N)OC4=CC=C(C=C4)Cl
# Procedure, shortened: as §1
# [3] = compound: C1=CC2=C(C=CC(=C2)/C=C\3/C(=O)NC(=NCC4=CC=CS4)S3)N=C1
# Procedure, shortened: as §1
# [4] = compound: C1=CC2=NC=CN=C2C=C1/C=C/3\C(=O)NC(=O)S3
# Procedure, shortened: as §1
# [5] = compound: C1=CC=C(C=C1)C2=NC(=C(N2)C3=CC=NC=C3)C4=CC(=C(C=C4)Cl)O
# Procedure, shortened: as §1
# [6] = compound: C1=CC=C2C(=C1)C3=NNC4=CC=CC(=C43)C2=O
# Procedure, shortened: as §1
# [7] = compound: C1CCN(C1)C(=O)NC2=CC=CC(=C2)NC3=NC=C(C(=N3)NCCC4=CN=CN4)Br
# Procedure, shortened: as §1
# [8] = compound: C1CN(CCC1(CC2=CC=C(C=C2)Cl)N)C3=NC=NC4=C3C=CN4
# Procedure, shortened: as §1
# IRAK-1-4 Inhibitor I = compound: C1COCCN1CCN2C3=CC=CC=C3N=C2NC(=O)C4=CC(=CC=C4)[N+](=O)[O-] [IRAK-1-4 Inhibitor I]
# Procedure, shortened: as §1
# ibrutinib = compound: C=CC(=O)N1CCC[C@@H](n2nc(-c3ccc(Oc4ccccc4)cc3)c3c(N)ncnc32)C1 [ibrutinib]
# Procedure, shortened: as §1
# [9] = compound: CC(=O)c1cnc2ccc(-c3cc(Cl)c(O)c(Cl)c3)nc2c1N[C@H]1CC[C@H](CN(C)C)CC1
# Procedure, shortened: as §1
# ralimetinib = compound: CC(C)(C)Cn1c(N)nc2ccc(-c3[nH]c(C(C)(C)C)nc3-c3ccc(F)cc3)nc21 [ralimetinib]
# Procedure, shortened: as §1
# [10] = compound: CC(C)(O)CC(=O)NCCn1ccc2ncnc(Nc3ccc(Oc4cccc(C(F)(F)F)c4)c(Cl)c3)c21
# Procedure, shortened: as §1
# [11] = compound: CC(C)C1=C2N=C(C=C(N2N=C1)NCC3=CC=CC=C3)NCCCCCCN
# Procedure, shortened: as §1
# [12] = compound: CC1=C(C(CC(=O)N1)C2=CC=C(C=C2)C(F)(F)F)C(=O)NC3=C(C=C4C(=C3)C=NN4)F
# Procedure, shortened: as §1
# [13] = compound: CC1=C(C2=C(C=C1)C(=O)C3=CC=CC=C3N2CCCN)C
# Procedure, shortened: as §1
# [14] = compound: CC1=C(C=C(C=C1)NC(=O)C2=CC(=CC=C2)C(C)(C)C#N)NC3=CC4=C(C=C3)N=CN(C4=O)C
# Procedure, shortened: as §1
# [15] = compound: CC1=C(C=C(C=C1)NC(=O)C2=CC(=CC=C2)N(C)C)NC(=O)C3=CC=C(C=C3)O
# Procedure, shortened: as §1
# [16] = compound: CC1=CC=C(C=C1)SC2=C3C=C(SC3=CN=C2)C(=O)N
# Procedure, shortened: as §1
Target,log2 fold change (erlotinib),log2 fold change [1],log2 fold change [2],log2 fold change [3],log2 fold change [4],log2 fold change [5],log2 fold change [6],log2 fold change [7],log2 fold change [8],log2 fold change (IRAK-1-4 Inhibitor I),log2 fold change (ibrutinib),log2 fold change [9],log2 fold change (ralimetinib),log2 fold change [10],log2 fold change [11],log2 fold change [12],log2 fold change [13],log2 fold change [14],log2 fold change [15],log2 fold change [16]
PPIP5K2 (UniProt O43314),inactive: 0,inactive: 0.018,inactive: -0.015,inactive: -0.025,inactive: 0,inactive: 0.009,inactive: -0.039,inactive: -0.003,inactive: -0.007,inactive: -0.011,inactive: 0.008,inactive: -0.002,inactive: 0.006,inactive: -0.022,inactive: 0.009,inactive: -0.018,inactive: -0.013,inactive: -0.027,inactive: 0.004,inactive: 0.041
PRMT8 (UniProt Q9NR22),inactive: 0.01,inactive: -0.003,inactive: 0.009,inactive: -0.046,inactive: -0.015,inactive: 0.024,inactive: -0.031,inactive: -0.012,inactive: 0.013,inactive: 0.024,inactive: -0.073,inactive: -0.012,inactive: 0.036,inactive: -0.018,inactive: 0.003,inactive: -0.028,inactive: 0.009,inactive: 0.032,inactive: 0.002,inactive: 0.007
PPP4R4 (UniProt Q6NUP7),inactive: 0.126,inactive: -0.035,inactive: 0.07,inactive: -0.02,inactive: -0.058,inactive: 0.111,inactive: -0.273,inactive: -0.001,inactive: 0.119,inactive: 0.153,inactive: 0,inactive: -0.266,inactive: -0.143,inactive: -0.405,inactive: 0.047,inactive: -0.048,inactive: -0.292,inactive: 0.377,inactive: 0.137,inactive: -0.206
PPP1R14B (UniProt Q96C90),inactive: 0.017,inactive: -0.043,inactive: -0.004,inactive: 0.022,inactive: -0.093,inactive: -0.046,inactive: -0.012,inactive: 0.078,inactive: 0.011,inactive: -0.042,inactive: 0.047,inactive: 0.033,inactive: 0.059,inactive: -0.058,inactive: -0.008,inactive: 0.136,inactive: 0.022,inactive: 0.028,inactive: -0.05,inactive: -0.008
PPP6R1 (UniProt Q9UPN7),inactive: 0.086,inactive: -0.001,inactive: -0.016,inactive: 0.011,inactive: 0.053,inactive: -0.016,inactive: 0.009,inactive: 0,inactive: 0.029,inactive: 0.031,inactive: 0.018,inactive: 0.008,inactive: 0.029,inactive: -0.023,inactive: -0.02,inactive: -0.005,inactive: -0.022,inactive: 0.067,inactive: 0.021,inactive: 0.016
PREP (UniProt P48147),inactive: 0.026,inactive: -0.016,inactive: 0.028,inactive: -0.007,inactive: -0.002,inactive: 0.002,inactive: -0.002,inactive: -0.024,inactive: 0.014,inactive: -0.007,inactive: 0.019,inactive: 0,inactive: 0.015,inactive: 0.004,inactive: -0.008,inactive: 0.011,inactive: -0.009,inactive: -0.006,inactive: 0.006,inactive: 0.011
PRKDC (UniProt P78527),inactive: 0.021,inactive: -0.064,inactive: -0.029,inactive: 0.135,active: 0.927,inactive: 0.037,inactive: 0.068,inactive: 0.122,inactive: -0.041,inactive: 0.02,inactive: 0.096,inactive: 0.318,inactive: 0.033,inactive: 0.01,inactive: -0.014,inactive: -0.021,inactive: 0.031,inactive: -0.057,inactive: 0.038,inactive: -0.01
PRPF3 (UniProt O43395),inactive: -0.036,inactive: 0.027,inactive: -0.01,inactive: 0.01,inactive: -0.033,inactive: 0.015,inactive: 0.008,inactive: 0.011,inactive: -0.009,inactive: -0.027,inactive: -0.003,inactive: -0.011,inactive: 0.03,inactive: -0.005,inactive: 0.021,inactive: -0.002,inactive: 0.019,inactive: -0.044,inactive: 0.068,inactive: 0.007
PRKACA (UniProt P17612),inactive: -0.033,inactive: -0.056,inactive: 0.049,inactive: 0.016,inactive: -0.015,inactive: -0.015,inactive: 0.034,inactive: 0.234,inactive: 0.34,inactive: 0.015,inactive: 0.021,active: 0.767,inactive: 0.029,inactive: -0.106,inactive: -0.045,inactive: 0.059,inactive: -0.046,inactive: -0.118,inactive: -0.008,inactive: -0.057
PPP2CA (UniProt P67775),inactive: -0.088,inactive: 0.134,inactive: -0.057,inactive: -0.045,inactive: -0.007,inactive: 0.064,inactive: 0.016,inactive: 0.106,inactive: -0.027,inactive: -0.041,inactive: 0.042,inactive: 0.009,inactive: 0.007,inactive: 0.083,inactive: -0.012,inactive: -0.017,inactive: -0.034,inactive: -0.047,inactive: -0.003,inactive: 0.036
PPP1R2 (UniProt P41236),inactive: 0.014,inactive: 0.024,inactive: -0.03,inactive: -0.011,inactive: -0.006,inactive: -0.007,inactive: 0.027,inactive: 0.027,inactive: 0.015,inactive: 0.015,inactive: -0.005,inactive: 0.009,inactive: -0.014,inactive: 0.008,inactive: -0.025,inactive: 0.014,inactive: -0.009,inactive: 0.016,inactive: -0.045,inactive: -0.026
PROCR (UniProt Q9UNN8),inactive: -0.075,inactive: -0.281,inactive: 0.012,inactive: -0.072,inactive: -0.059,inactive: -0.119,inactive: 0.039,inactive: 0.14,inactive: -0.062,inactive: 0.028,inactive: -0.09,inactive: -0.008,inactive: -0.015,inactive: 0.038,inactive: -0.102,inactive: 0.064,inactive: -0.137,inactive: -0.044,inactive: -0.08,inactive: -0.022
PRKRIP1 (UniProt Q9H875),inactive: -0.035,inactive: -0.044,inactive: 0.014,inactive: 0.006,inactive: -0.103,inactive: 0.049,inactive: 0.012,inactive: -0.034,inactive: -0.014,inactive: -0.014,inactive: -0.036,inactive: 0.02,inactive: -0.023,inactive: -0.05,inactive: -0.022,inactive: -0.032,inactive: -0.013,inactive: -0.051,inactive: -0.045,inactive: -0.007
PQBP1 (UniProt O60828),inactive: -0.009,inactive: -0.041,inactive: 0.006,inactive: -0.02,inactive: -0.052,inactive: 0.053,inactive: 0.014,inactive: -0.016,inactive: 0.014,inactive: 0.03,inactive: 0.033,inactive: -0.017,inactive: -0.024,inactive: 0.046,inactive: 0.007,inactive: 0.006,inactive: -0.007,inactive: 0.037,inactive: -0.01,inactive: -0.007
PRKCSH (UniProt P14314),inactive: -0.027,inactive: 0.013,inactive: 0.01,inactive: -0.012,inactive: -0.012,inactive: 0.023,inactive: 0.07,inactive: 0.027,inactive: -0.027,inactive: 0.005,inactive: -0.008,inactive: 0.01,inactive: 0.007,inactive: 0.019,inactive: -0.026,inactive: -0.004,inactive: 0.047,inactive: -0.057,inactive: 0.001,inactive: 0
PRDX4 (UniProt Q13162),inactive: -0.057,inactive: -0.05,inactive: 0.032,inactive: -0.045,inactive: 0.009,inactive: -0.041,inactive: 0.003,inactive: -0.003,inactive: -0.003,inactive: -0.008,inactive: 0.052,inactive: 0.014,inactive: 0.06,inactive: -0.021,inactive: 0.005,inactive: -0.006,inactive: -0.006,inactive: 0,inactive: 0.022,inactive: -0.024

# A run of entries taken from the entries so far, as a working copy:
Target,log2 fold change (erlotinib),log2 fold change [1],log2 fold change [2],log2 fold change [3],log2 fold change [4],log2 fold change [5],log2 fold change [6],log2 fold change [7],log2 fold change [8],log2 fold change (IRAK-1-4 Inhibitor I),log2 fold change (ibrutinib),log2 fold change [9],log2 fold change (ralimetinib),log2 fold change [10],log2 fold change [11],log2 fold change [12],log2 fold change [13],log2 fold change [14],log2 fold change [15],log2 fold change [16]
PPP1R14B (UniProt Q96C90),inactive: 0.017,inactive: -0.043,inactive: -0.004,inactive: 0.022,inactive: -0.093,inactive: -0.046,inactive: -0.012,inactive: 0.078,inactive: 0.011,inactive: -0.042,inactive: 0.047,inactive: 0.033,inactive: 0.059,inactive: -0.058,inactive: -0.008,inactive: 0.136,inactive: 0.022,inactive: 0.028,inactive: -0.05,inactive: -0.008
PPP6R1 (UniProt Q9UPN7),inactive: 0.086,inactive: -0.001,inactive: -0.016,inactive: 0.011,inactive: 0.053,inactive: -0.016,inactive: 0.009,inactive: 0,inactive: 0.029,inactive: 0.031,inactive: 0.018,inactive: 0.008,inactive: 0.029,inactive: -0.023,inactive: -0.02,inactive: -0.005,inactive: -0.022,inactive: 0.067,inactive: 0.021,inactive: 0.016

# From the supplement of paper PMC10849652
